Source: PubChem BioAssay AID2685 (National Center for Advancing Translational Sciences (NCATS), 2010)
In all, about 320,000 compounds went through this assay and about 2,100 (0.66%) were called active. The inconclusive results got no clear call from the source; some entries with a clear call stand among them for comparison. Calls come from the whole dose curve; as a rule, active = well fitted inhibition curve with a large enough effect in the signal ratio, with a control signal flat (not every such curve was filed as active); inconclusive = small, poorly fitted or top-dose-only effect, or effect the other way, or a change in a side signal; inactive = flat fitted curve, though single readings scatter; the % refers to the signal ratio. Potencies of inconclusive entries are doubtful fits and often do not repeat.

Experiment: qHTS Assay for Lipid Storage Modulators in Drosophila S3 Cells
Settings: BODIPY lipid droplet fluorescence, 18-24 h, cells fed with added oleic acid; lipid storage change, negative = inhibition: at 46.1 µM (top of the series) unless noted
Outline: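 Drosophila S3 cells loaded with oleic acid (400 uM, as added) and compounds at several concentrations; lipid droplets imaged by 488-nm laser-scanning cytometry, 500–530 nm intensity and object ratio to cell channel. Percent activity normalized to 20 uM Triacsin C.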
% is set by controls: 0 for no effect and ±100 for the full control effect; potency is the fitted concentration of half-maximal effect.

Potency, inconclusive:
Cc1ccc(S(=O)(=O)N2CCC(C(=O)Nc3ccccc3N3CCCCC3)CC2)cc1 6.51 µM [activator, single point]
Cc1nc(NCCc2ccccc2)c2nnn(Cc3ccccc3Cl)c2n1 6.51 µM [activator, single point]
CCCCN(C)Cc1c(C(=O)N2CCc3ccccc3C2)nc2ccc(Cl)cn12 4.11 µM [rising, single point]
CCc1c(C)sc(NC(=O)c2cccs2)c1C(=O)OC(C)C 0.58 µM [activator, single point]
O=C(CN1C(=O)S/C(=C\c2cccs2)C1=O)Nc1ccc(O)c(C(=O)O)c1 23.1 µM [activator, single point]
O=C(Nc1nccs1)c1ccc(Br)s1 29.1 µM [falling, single point]
CNC(=O)/C(C#N)=C/c1ccc(OCCOc2ccccc2)cc1 18.4 µM [falling, single point]
COc1ccccc1N1CCN(C(=S)Nc2ccc(F)cc2)CC1 29.1 µM [activator, single point]
COc1ccccc1NC(=O)CN1CCN(CC(=O)Nc2ccc(F)cc2F)CC1 3.66 µM [falling, partial curve, poor fit]
COc1cc(/C=C2/NC(=O)N(CC(=O)Nc3ccc(C)cc3)C2=O)ccc1Oc1ccc([N+](=O)[O-])cn1 25.9 µM [activator, single point]
O=C(CSc1nnc(CNC(=O)c2ccco2)o1)Nc1ccc(F)cc1 25.9 µM [activator, single point]
Cc1nn(C(C)(C)C)c(OC(=O)c2ccc3c(c2)OCO3)c1Sc1ccccc1 2.06 µM [falling, partial curve]
CC(C)(C)CC(=O)Nc1ccc(S(=O)(=O)N2CCCC2)cc1 29.1 µM [falling, partial curve, poor fit]
CCOC(=O)CC1C(C(=O)OCC)ON2OC(C(=O)OC)C(C(=O)OCC)C12 (stereo not given) 25.9 µM [falling, single point]
O=C(CSc1nnnn1C1CCCCC1)Nc1ccc2c(c1)OCO2 1.84 µM [activator, partial curve]
COc1ccc(OCC(=O)NNC(=O)C2CCN(c3ncnc4sc(C)c(C)c34)CC2)cc1 2.06 µM [activator, partial curve, poor fit]
O=C(N/N=C/c1cccc(Cl)c1Cl)Nc1ccccc1 29.1 µM [falling, single point]
O=C(Nc1ccc(Cl)cc1)Nc1ccccc1Sc1ncc([N+](=O)[O-])s1 29.1 µM [falling, single point]
CCN(CC)c1ccc(CN(C(=O)c2ccco2)C2CCS(=O)(=O)C2)cc1 (stereo not given) 2.31 µM [activator, single point]
CCOC(=O)c1c(C)oc2ccc(NS(=O)(=O)c3cccs3)cc12 29.1 µM [activator, single point]
COC(=O)c1ccccc1NC(=S)N(Cc1ccc2c(c1)OCO2)Cc1cc2cc(OC)ccc2[nH]c1=O 0.164 µM [activator, full curve, poor fit]
Cc1ccc(C(=O)NC2CC(C)(C)NC(C)(C)C2)c(C)c1 6.51 µM [falling, single point]
Cc1ccc(C)c(NC(=S)NCCSc2ccc(Cl)cc2)c1 0.731 µM [falling, full curve]

Potency, active:
COC(=O)[C@@H](NC(=O)NCc1ccccc1F)C(C)C 25.9 µM

Lipid storage change, negative = inhibition, inconclusive:
CCN1CC2([N+](=O)[O-])C=CC(=O)C([N+](=O)[O-])(C1)C2CC(=O)c1ccccc1 (stereo not given) 24.4%
O=C(O)c1ccccc1C(=O)N1N=C(c2ccccc2)CC1c1ccccc1O (stereo not given) 86.3%
CCS(=O)(=O)c1ccc2oc(Nc3ccccc3Cl)nc2c1 -172%
COc1cc(/C=C(\C#N)c2nc3ccccc3s2)ccc1OCC(=O)Nc1ccccc1 -23.5%
O=[N+]([O-])c1cccc(NC(=S)N2CCN(S(=O)(=O)c3ccccc3)CC2)c1 21.9%
O=C(CCCCn1c(=O)[nH]c2ccccc2c1=O)N1CCN(c2cccc(C(F)(F)F)c2)CC1 -16.8%
O=C(O)CC/C(=N\Nc1ccc(S(=O)(=O)N2CCOCC2)cc1[N+](=O)[O-])c1cccs1 13.3%
CCOc1ccc(C(=O)NCC(=O)OC2CCOC2=O)cc1OCC (stereo not given) -17.3%
COc1cc(C2CC(=O)N3CN(Cc4ccco4)CSC3=C2C#N)ccc1OCc1ccccc1 (stereo not given) 0.227% [at 9.22 µM]
Cc1ccc(N2CC(C(=O)Nc3nc4ccc(S(C)(=O)=O)cc4s3)CC2=O)cc1 (stereo not given) -13.8%
CCN(Cc1ccccc1)Cc1ccc(OCc2ccccc2)cc1 26%
COc1ccc(CNC(=O)C(C)N2CCN(c3ccc(C(C)=O)cc3)CC2)cc1 (stereo not given) -69.9%
Cc1nc2ccc(NC(=O)c3cnc(Cl)c(Cl)c3)cc2s1 -34.5%
O=C(c1ccc(-c2ccccc2Cl)o1)N1CCCC(C(F)(F)F)C1 (stereo not given) -86.1%
CC(C)(O)C(=O)NN(C(=O)c1ccccc1)c1cccc(Br)c1 -3.08%
COc1ccccc1C(=O)NCCC(=O)NC1=NCCS1 -3.3%
CCS(=O)(=O)N1CCN(c2ccc([N+](=O)[O-])c(N3CCOCC3)c2)CC1 1.13%
C/C(=C\c1ccccc1F)C(=O)c1c(C)cc(C)[nH]c1=O 15.6%
CCc1ccc(NC(=O)CN(c2ccccc2)S(=O)(=O)N(C)C)cc1 -37%
CS(=O)(=O)N(CC(=O)Nc1c(F)cccc1F)c1cccc([N+](=O)[O-])c1 -13%
CC(CNC(=O)c1ccc(OC2CCN(Cc3ccccn3)CC2)cc1)Oc1cccnc1 (stereo not given) -52.8%
COc1ccc(-n2c(Cn3c(=O)sc4ccccc43)nnc2SCC(=O)N2CCOCC2)cc1 -12.7%
OCCN(Cc1ccccc1)Cc1ccccc1O -41.8%
CCOC(=O)[C@@H]1[C@H]2COc3ccccc3[C@@H]2N2C(=O)N(c3cccc(Cl)c3)C(=O)[C@@]12C -66.5%
CNC(=O)C(C)c1ncc(C(F)(F)F)cc1Cl (stereo not given) -23.8%
CC(CNC(=O)CN1C(=O)NC2(CCCCC2)C1=O)c1ccccc1 (stereo not given) 10.7%
CCOC(=O)c1ccc(N2C(=O)CC(N3CCOCC3)C2=O)cc1 (stereo not given) -140%
CCOc1ccc(NC(=O)CC2C(=O)N(c3ccccc3)C(=O)N2CCc2cccs2)cc1 (stereo not given) 25.6%
c1ccc(CNc2nc3ccccc3n3cnnc23)cc1 58.5%
O=C(Nc1ccnn1C1CCN(Cc2ccccc2F)CC1)C1CCCC1 9.97%
Cn1nc(C(C)(C)C)cc1C(=O)O 6.77%
COCCCn1c(-c2cccc(Cl)c2)nc2c1c(=O)[nH]c(=O)n2Cc1ccccc1 96.3%
COc1ccc(/C=N/N2CCN(Cc3ccc(C)cc3)CC2)cc1Br 24.7%
O=C(Nc1cccc(C(=O)O)c1)/C(=C\c1ccccc1)NC(=O)c1ccccc1Cl -27.7%
Cc1cc(C)n(Cc2cc(C(=O)O)c3ccccc3n2)n1 -16%
c1ccc(-c2ccc3c(c2)NC(C2Nc4cc(-c5ccccc5)ccc4O2)O3)cc1 (stereo not given) -39.7%
Cc1cc(C(=O)OCC(=O)N2CC(C)OC(C)C2)c(C)n1-c1ccccc1 (stereo not given) 20%
CCN(c1ccc(NC(=O)c2ccc(N3CCCC3=O)cc2)cc1)C(C)C 24%
CCOc1ccc(OCC(=O)OCC(=O)NNC(=O)c2ccc([N+](=O)[O-])cc2)cc1 1.2%
Cc1ccc(-n2cc(CNCCCn3ccnc3C)c(-c3ccc(F)cc3)n2)cc1 -0.733%
CC1Sc2ccc(C(=O)N3CCCC(C(F)(F)F)C3)cc2NC1=O (stereo not given) 32.4%
O=C(CSc1nc2ccccc2c(=O)n1Cc1ccccc1)NCc1ccco1 -38.1%
C=CCCC(=O)N1CCC(n2nccc2NC(=O)c2ccccc2C)CC1 -11.7%
COc1ccc(N(CC(=O)N/N=C(\C)c2ccc(C)cc2)S(=O)(=O)c2ccccc2)cc1 12.4%
CC1CCc2nc3ccc(S(=O)(=O)N4CCC(C(=O)N5CCCCC5)CC4)cc3c(C(=O)O)c2C1 (stereo not given) -68.6%
O=C(O)c1ccccc1Nc1ccccc1C(=O)O 16.1%
C=CCN(CC=C)CCOc1cc(C)ccc1[N+](=O)[O-] 40.7%

3 entries drawn at random from those above:
Lipid storage change, negative = inhibition, inconclusive:
CC(C)(O)C(=O)NN(C(=O)c1ccccc1)c1cccc(Br)c1 -3.08%
C=CCN(CC=C)CCOc1cc(C)ccc1[N+](=O)[O-] 40.7%
O=C(O)c1ccccc1C(=O)N1N=C(c2ccccc2)CC1c1ccccc1O (stereo not given) 86.3%

Arranged by molecular weight (ascending): some entries from above.
Lipid storage change, negative = inhibition, inconclusive:
CS(=O)(=O)N(CC(=O)Nc1c(F)cccc1F)c1cccc([N+](=O)[O-])c1 -13%
Cc1ccc(N2CC(C(=O)Nc3nc4ccc(S(C)(=O)=O)cc4s3)CC2=O)cc1 (stereo not given) -13.8%
COc1ccc(-n2c(Cn3c(=O)sc4ccccc43)nnc2SCC(=O)N2CCOCC2)cc1 -12.7%

Next part:

Lipid storage change, negative = inhibition, inactive:
Cc1nn(CC(=O)NC(C)C)c(C)c1[N+](=O)[O-]
CCOC(=O)Cn1c(=N)n(CCOc2ccc(Br)cc2)c2ccccc21
Nc1nonc1-n1nnc(C(=O)N/N=C/c2ccccc2Br)c1CN1CCCC1
COc1ccc(-c2nn(CCC#N)cc2C=C(C#N)C#N)cc1
